Source: PubChem BioAssay AID1508588 (Peter MacCallum Cancer Centre, 2020)
Screen: 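Knock-downs boosting vemurafenib effects on melanoma cell growth or lactate release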 (primary screen). Cells: human WM266.4 melanoma cells (BRAF V600 mutant). Reagent: siRNA pool against human genes, 40 nM. Time to read-out: 96 h from transfection to read-out. Conditions: vemurafenib 300 nM (about IC25), added 48 h after transfection, for 48 h; comparison arm got DMSO vehicle only. Detection: 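Ratios to non-targeting siRNA for cell gain, counted as DAPI nuclei after minus before drug and averaged over two replicates, and for absorbance-read medium lactate per cell; both binned into fold-change classes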. Reading the numbers: cell gain with vemurafenib: higher = more cell gain than with non-targeting siRNA; lactate per cell with vemurafenib: higher = more lactate made per cell. Rule for the call: 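Enhancement is called by pairing each knock-down's vehicle-arm and drug-arm fold-change classes for viability or glycolysis; which class combinations qualify is not given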. Calls: active = enhances vemurafenib effect; inactive = no enhancement seen.
The deposit covers about 18,000 reagents; this is a part drawn at random. 790 of them (4.4%) were called active. 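Calls rest on a combination of fold-change classes in drug and vehicle arms, not all shown here.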 Entries without a mark were called inactive.

RNF32 → cell gain with vemurafenib = 0.91; lactate per cell with vemurafenib = 0.75
EIF2AK1 → cell gain with vemurafenib = 0.76; lactate per cell with vemurafenib = 0.95
TBCK → cell gain with vemurafenib = 0.86; lactate per cell with vemurafenib = 0.85
COPB1 → cell gain with vemurafenib = -0.11; lactate per cell with vemurafenib = 0.77
ZFP42 → cell gain with vemurafenib = 1.31 (active); lactate per cell with vemurafenib = -0.06
CHIT1 → cell gain with vemurafenib = 0.32; lactate per cell with vemurafenib = 1.71
KBTBD11 → cell gain with vemurafenib = 0.86; lactate per cell with vemurafenib = 1.14
SLC25A1 → cell gain with vemurafenib = 0.56; lactate per cell with vemurafenib = 1.62
RCSD1 → cell gain with vemurafenib = 0.99; lactate per cell with vemurafenib = 1.02
PCDH11X → cell gain with vemurafenib = 0.42; lactate per cell with vemurafenib = 0.61
BRWD3 → cell gain with vemurafenib = 1.01; lactate per cell with vemurafenib = 0.75
HBE1 → cell gain with vemurafenib = 0.68; lactate per cell with vemurafenib = 0.86
BICD1 → cell gain with vemurafenib = 0.96; lactate per cell with vemurafenib = 1.05
ANKRD33 → cell gain with vemurafenib = 0.64; lactate per cell with vemurafenib = 1.21
TERF1 → cell gain with vemurafenib = 0.42; lactate per cell with vemurafenib = 0.82
DNM1L → cell gain with vemurafenib = 0.3; lactate per cell with vemurafenib = 0.88
ARHGEF2 → cell gain with vemurafenib = 0.28; lactate per cell with vemurafenib = 0.4
SCAMP4 → cell gain with vemurafenib = 0.65; lactate per cell with vemurafenib = 1.19
PTGR3 → cell gain with vemurafenib = 1.09; lactate per cell with vemurafenib = 1.37
DHH → cell gain with vemurafenib = 0.67 (active); lactate per cell with vemurafenib = 0.47
TNP2 → cell gain with vemurafenib = 0.67; lactate per cell with vemurafenib = 0.86
PCYT1B → cell gain with vemurafenib = 0.5; lactate per cell with vemurafenib = 1.48
YWHAG → cell gain with vemurafenib = 0.16; lactate per cell with vemurafenib = 1.23
UBE2V1 → cell gain with vemurafenib = 0.56; lactate per cell with vemurafenib = 1.56
WNT5A → cell gain with vemurafenib = 0.39; lactate per cell with vemurafenib = 1.49
CREG2 → cell gain with vemurafenib = 0.33; lactate per cell with vemurafenib = 1.37
DDX31 → cell gain with vemurafenib = 0.21; lactate per cell with vemurafenib = 2.17
HYAL4 → cell gain with vemurafenib = -0.1; lactate per cell with vemurafenib = 1.93
CEP170 → cell gain with vemurafenib = 0.49; lactate per cell with vemurafenib = 0.22
DDC → cell gain with vemurafenib = 0.65; lactate per cell with vemurafenib = 0.58
APOL2 → cell gain with vemurafenib = 0.97; lactate per cell with vemurafenib = 0.33
PLPPR3 → cell gain with vemurafenib = 1.21; lactate per cell with vemurafenib = 0.8
NCOA6 → cell gain with vemurafenib = 0.62; lactate per cell with vemurafenib = 1.7
MEX3D → cell gain with vemurafenib = 1.2; lactate per cell with vemurafenib = 0.94
GLI1 → cell gain with vemurafenib = 0.14; lactate per cell with vemurafenib = 1.05
KLRB1 → cell gain with vemurafenib = 0.92; lactate per cell with vemurafenib = 0.55
C9 → cell gain with vemurafenib = 0.26 (active); lactate per cell with vemurafenib = 0.15
SPMAP2 → cell gain with vemurafenib = 0.53; lactate per cell with vemurafenib = 1.09
GDAP2 → cell gain with vemurafenib = 0.57; lactate per cell with vemurafenib = 1.09
NKX2-8 → cell gain with vemurafenib = 0.71; lactate per cell with vemurafenib = 0.8

Targets above whose target name begins with C or c (5):
COPB1 → cell gain with vemurafenib = -0.11; lactate per cell with vemurafenib = 0.77
CHIT1 → cell gain with vemurafenib = 0.32; lactate per cell with vemurafenib = 1.71
CREG2 → cell gain with vemurafenib = 0.33; lactate per cell with vemurafenib = 1.37
CEP170 → cell gain with vemurafenib = 0.49; lactate per cell with vemurafenib = 0.22
C9 → cell gain with vemurafenib = 0.26 (active); lactate per cell with vemurafenib = 0.15
